Laboratory results: PubChem BioAssay AID1259254 (NCATS, 2017)

- Test: 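Genome-wide screen for genes that prevent DNA re-replication in cancer cells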 (primary screen)
- Cells: human HCT116 colorectal cancer cells
- Reagents: single siRNA against human genes
- Duration: 3 days
- Measured: 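Imaged Hoechst DNA stain sorts each cell into a cycle phase by DNA amount; per plate, G2 fraction set to 0% for non-targeting and 100% for GMNN siRNA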
- Direction: G2 robust z-score and G2 cells, % of GMNN control: higher = more G2 cells, more excess DNA replication
- Hit rule: 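An siRNA counts as active if its G2 robust z-score lies at least 5 MADs above the screen median; here such calls match roughly 38% of GMNN control or more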
In all, the deposit lists about 59,000 reagents; this is a random part of them. About 1,550 of all reagents (2.6%) were called active. 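G2 share is only a proxy for re-replication; each gene was hit by three separate siRNAs, and active genes were retested.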 The numbers tell different reagents against one gene apart. Further read-outs or replicates are left out here. Not stated in the record: the amount of reagent.

{"gene":"NPR3 (natriuretic peptide receptor 3)","reagent no.":1,"G2 robust z-score":0.269,"G2 cells, % of GMNN control":4.86,"Outcome":"inactive"}
{"gene":"NPR3 (natriuretic peptide receptor 3)","reagent no.":2,"G2 robust z-score":-0.504,"G2 cells, % of GMNN control":-0.579,"Outcome":"inactive"}
{"gene":"NPR3 (natriuretic peptide receptor 3)","reagent no.":3,"G2 robust z-score":2.07,"G2 cells, % of GMNN control":17.5,"Outcome":"inactive"}
{"gene":"NPR3 (natriuretic peptide receptor 3)","reagent no.":4,"G2 robust z-score":0.334,"G2 cells, % of GMNN control":5.32,"Outcome":"inactive"}
{"gene":"NPR3 (natriuretic peptide receptor 3)","reagent no.":5,"G2 robust z-score":-0.456,"G2 cells, % of GMNN control":-0.243,"Outcome":"inactive"}
{"gene":"NPR3 (natriuretic peptide receptor 3)","reagent no.":6,"G2 robust z-score":1.05,"G2 cells, % of GMNN control":10.3,"Outcome":"inactive"}
{"gene":"DMBX1 (diencephalon/mesencephalon homeobox 1)","reagent no.":1,"G2 robust z-score":-0.857,"G2 cells, % of GMNN control":-3.06,"Outcome":"inactive"}
{"gene":"DMBX1 (diencephalon/mesencephalon homeobox 1)","reagent no.":2,"G2 robust z-score":-0.0744,"G2 cells, % of GMNN control":2.44,"Outcome":"inactive"}
{"gene":"DMBX1 (diencephalon/mesencephalon homeobox 1)","reagent no.":3,"G2 robust z-score":-1.21,"G2 cells, % of GMNN control":-5.52,"Outcome":"inactive"}
{"gene":"LOC649305 (retired record)","reagent no.":1,"G2 robust z-score":-0.689,"G2 cells, % of GMNN control":-1.88,"Outcome":"inactive"}
{"gene":"LOC649305 (retired record)","reagent no.":2,"G2 robust z-score":-1.14,"G2 cells, % of GMNN control":-5.03,"Outcome":"inactive"}
{"gene":"LOC649305 (retired record)","reagent no.":3,"G2 robust z-score":-0.765,"G2 cells, % of GMNN control":-2.41,"Outcome":"inactive"}
{"gene":"NKTR (natural killer cell triggering receptor)","reagent no.":1,"G2 robust z-score":-1.17,"G2 cells, % of GMNN control":-5.28,"Outcome":"inactive"}
{"gene":"NKTR (natural killer cell triggering receptor)","reagent no.":2,"G2 robust z-score":2.65,"G2 cells, % of GMNN control":21.6,"Outcome":"inactive"}
{"gene":"NKTR (natural killer cell triggering receptor)","reagent no.":3,"G2 robust z-score":4.87,"G2 cells, % of GMNN control":37.2,"Outcome":"inactive"}
{"gene":"GIMAP8 (GTPase, IMAP family member 8)","reagent no.":1,"G2 robust z-score":-0.624,"G2 cells, % of GMNN control":-1.42,"Outcome":"inactive"}
{"gene":"GIMAP8 (GTPase, IMAP family member 8)","reagent no.":2,"G2 robust z-score":-0.189,"G2 cells, % of GMNN control":1.64,"Outcome":"inactive"}
{"gene":"GIMAP8 (GTPase, IMAP family member 8)","reagent no.":3,"G2 robust z-score":6.42,"G2 cells, % of GMNN control":48.1,"Outcome":"active"}
{"gene":"MIGA2 (mitoguardin 2)","reagent no.":1,"G2 robust z-score":-0.645,"G2 cells, % of GMNN control":-1.57,"Outcome":"inactive"}
{"gene":"MIGA2 (mitoguardin 2)","reagent no.":2,"G2 robust z-score":0.377,"G2 cells, % of GMNN control":5.62,"Outcome":"inactive"}
{"gene":"MIGA2 (mitoguardin 2)","reagent no.":3,"G2 robust z-score":-0.0577,"G2 cells, % of GMNN control":2.56,"Outcome":"inactive"}
{"gene":"PPP1R15A (protein phosphatase 1 regulatory subunit 15A)","reagent no.":1,"G2 robust z-score":1.51,"G2 cells, % of GMNN control":13.6,"Outcome":"inactive"}
{"gene":"PPP1R15A (protein phosphatase 1 regulatory subunit 15A)","reagent no.":2,"G2 robust z-score":-0.865,"G2 cells, % of GMNN control":-3.12,"Outcome":"inactive"}
{"gene":"PPP1R15A (protein phosphatase 1 regulatory subunit 15A)","reagent no.":3,"G2 robust z-score":-0.186,"G2 cells, % of GMNN control":1.66,"Outcome":"inactive"}

Targets listed so far whose target name starts with M or m:
{"gene":"MIGA2 (mitoguardin 2)","reagent no.":1,"G2 robust z-score":-0.645,"G2 cells, % of GMNN control":-1.57,"Outcome":"inactive"}
{"gene":"MIGA2 (mitoguardin 2)","reagent no.":2,"G2 robust z-score":0.377,"G2 cells, % of GMNN control":5.62,"Outcome":"inactive"}
{"gene":"MIGA2 (mitoguardin 2)","reagent no.":3,"G2 robust z-score":-0.0577,"G2 cells, % of GMNN control":2.56,"Outcome":"inactive"}
